The list is a part of this screen's results and no random one: it is rich in T/C values a quarter to a half above the control, in often repeated tests (any T/C) and in doses without a T/C. Other doses and runs of a compound stand elsewhere. T/C: endpoint of the treated group in % of that of the vehicle group. Some doses have a count of surviving animals in place of a T/C: the source holds a T/C of zero for them, seemingly a mark for toxic or unscored doses. Some survivor counts are full or nearly so, which does not show that the dose was tolerated: survival well below the control is almost never listed, so the zero probably covers shortened survival too. Counts of survivors are from the toxicity check (mostly the fifth day) where no day follows; animals may have died later. Schedules are NCI's codes, taken here to give the interval after Q, in days (D) or hours (H), and the number of doses after X. Where survival is the endpoint, this PubChem deposit counts one and a half times the control or more as active, and values a quarter to a half above the control carry no call in these data; other NCI protocols may use other cut-offs. Some T/C values carry the count of animals alive at the toxicity check (mostly the fifth day); without a count, all were alive then. Some doses were run more than once; their values stand side by side, smallest first.
Test system: CD2F1 mice, L1210 leukemia ip, survival T/C
Test: NCI In Vivo Anticancer Drug Screen. Data for tumor model L1210 Leukemia (intraperitoneal) in CD2F1 (CDF1) mice
Details: higher T/C = longer survival
Procedure, shortened: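 Each value reflects a quotient of treated over vehicle control outcomes in mice with a transplanted tumor.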

[1] = T/C endpoint: mean survival time, dose: 100.0 mg/kg/injection, schedule: Q04DX002 (ip), vehicle: saline with Tween-80

With COc1ccc2c(c1)CCC(c1ccccc1)=C2c1ccc(OCCN2CCCC2)cc1 the survivor count (T/C endpoint: mean survival time, dose: 48.0 mg/kg/injection, schedule: Q01DX009 (ip), vehicle: saline with Tween-80) was 3 of 6 and the survivor count (T/C endpoint: mean survival time, dose: 160.0 mg/kg/injection, schedule: Q04DX003 (ip), vehicle: saline with Tween-80) was 2 of 6.
C/C(=C\Cl)CO was tested, and the survivor count (T/C endpoint: mean survival time, dose: 200.0 mg/kg/injection, schedule: Q01DX009 (ip), vehicle: acetone) was 3 of 6.
Cc1cccc(C(=O)NN)c1 was tested, and the survivor count (T/C endpoint: mean survival time, dose: 150.0 mg/kg/injection, schedule: Q01DX001 (ip), vehicle: saline) was 3 of 6 and the survivor count (T/C endpoint: mean survival time, dose: 300.0 mg/kg/injection, schedule: Q01DX001 (ip), vehicle: saline) was 0 of 6.
O=C(NO)c1cc(O)c(O)c(O)c1 was tested, and the T/C (T/C endpoint: mean survival time, dose: 50.0 mg/kg/injection, schedule: Q01DX009 (ip), vehicle: distilled water + Tween-80) was 127 % of control, the T/C (T/C endpoint: mean survival time, dose: 50.0 mg/kg/injection, schedule: Q01DX009 (ip), vehicle: water) was 129 % of control [5 of 6 alive] and the T/C (T/C endpoint: mean survival time, dose: 100.0 mg/kg/injection, schedule: Q01DX009 (ip), vehicle: distilled water + Tween-80) was 139 % of control. For the same compound, the T/C (T/C endpoint: median survival time, dose: 25.0 mg/kg/injection, schedule: Q01DX009 (ip), vehicle: distilled water + Tween-80) was 128 % of control, the T/C (T/C endpoint: median survival time, dose: 50.0 mg/kg/injection, schedule: Q01DX009 (ip), vehicle: distilled water + Tween-80) was 132 % of control and the T/C (T/C endpoint: median survival time, dose: 100.0 mg/kg/injection, schedule: Q01DX009 (ip), vehicle: distilled water + Tween-80) was 140 [9 of 10 alive] and 146 % of control. For the same compound, the survivor count (T/C endpoint: median survival time, dose: 400.0 mg/kg/injection, schedule: Q01DX009 (ip), vehicle: distilled water + Tween-80) was 7 of 10.
For O=c1[nH]nc([O-])c2c1[n+](Cc1ccccc1)cn2Cc1ccccc1, the survivor count (T/C endpoint: mean survival time, dose: 150.0 mg/kg/injection, schedule: Q01DX005 (ip), vehicle: water) was 3 of 3.
For CC(=O)Oc1cc(-c2ccccc2)c(OC(C)=O)c(N=[N+]=[N-])c1C, the survivor count (T/C endpoint: mean survival time, dose: 400.0 mg/kg/injection, schedule: Q01DX001 (ip), vehicle: saline with Tween-80) was 0 of 3.
With Cn1cnc(C(=N)[Se])c1N the survivor count (T/C endpoint: mean survival time, dose: 12.5 mg/kg/injection, schedule: Q01DX005 (ip), vehicle: other) was 3 of 6, the survivor count (T/C endpoint: mean survival time, dose: 25.0 mg/kg/injection, schedule: Q01DX005 (ip), vehicle: other) was 2 of 6 and the survivor count (T/C endpoint: mean survival time, dose: 50.0 mg/kg/injection, schedule: Q01DX005 (ip), vehicle: other) was 0 of 6. The survivor count (T/C endpoint: mean survival time, dose: 100.0 mg/kg/injection, schedule: Q01DX005 (ip), vehicle: other) was 0 of 6 and the survivor count (T/C endpoint: mean survival time, dose: 200.0 mg/kg/injection, schedule: Q01DX005 (ip), vehicle: other) was 0 of 6.
For C[N+](C)(CC(=O)Nc1cc(C(F)(F)F)cc(C(F)(F)F)c1)CC(=O)Nc1ccc(Cl)c(C(F)(F)F)c1, the survivor count (T/C endpoint: mean survival time, dose: 100.0 mg/kg/injection, schedule: Q01DX009 (ip), vehicle: saline with Tween-80) was 1 of 6, the survivor count [1] was 2 of 3 and the survivor count (T/C endpoint: mean survival time, dose: 200.0 mg/kg/injection, schedule: Q01DX009 (ip), vehicle: saline with Tween-80) was 0 of 6. The survivor count (T/C endpoint: mean survival time, dose: 200.0 mg/kg/injection, schedule: Q04DX002 (ip), vehicle: saline with Tween-80) was 0 of 3, the survivor count (T/C endpoint: mean survival time, dose: 400.0 mg/kg/injection, schedule: Q01DX009 (ip), vehicle: saline with Tween-80) was 0 of 6 and the survivor count (T/C endpoint: mean survival time, dose: 400.0 mg/kg/injection, schedule: Q04DX002 (ip), vehicle: saline with Tween-80) was 0 of 3.
Cn1cnc(=S)c2ccccc21 was tested, and the survivor count (T/C endpoint: mean survival time, dose: 100.0 mg/kg/injection, schedule: Q04DX003 (ip), vehicle: Klucel (hydroxypropylcellulose) (HPC)) was 3 of 3.
In the case of C=CC(C)(C)S(=O)[O-].C[c-]1[c-][c-][c-][c-]1.[C-]#[O+].[C-]#[O+].[Fe+6], the survivor count (T/C endpoint: mean survival time, dose: 200.0 mg/kg/injection, schedule: Q04DX002 (ip), vehicle: saline) was 0 of 3.
With CN(Cc1cnc2nc(N)nc(N)c2n1)c1ccc(C(=O)NC(CCC(=O)NCc2ccccc2)C(=O)O)cc1 (stereo not given) the T/C (T/C endpoint: mean survival time, dose: 25.0 mg/kg/injection, schedule: Q01DX009 (ip), vehicle: sodium bicarbonate) was 125 % of control, the T/C (T/C endpoint: mean survival time, dose: 50.0 mg/kg/injection, schedule: Q01DX009 (ip), vehicle: sodium bicarbonate) was 128 % of control and the T/C (T/C endpoint: mean survival time, dose: 100.0 mg/kg/injection, schedule: Q01DX009 (ip), vehicle: sodium bicarbonate) was 133 % of control.
With O=C(C=C(C(F)(F)Cl)C(F)(F)Cl)c1cccs1 the survivor count (T/C endpoint: mean survival time, dose: 100.0 mg/kg/injection, schedule: Q04DX003 (ip), vehicle: saline with Tween-80) was 0 of 6, the survivor count (T/C endpoint: mean survival time, dose: 200.0 mg/kg/injection, schedule: Q04DX003 (ip), vehicle: saline with Tween-80) was 0 of 6 and the survivor count (T/C endpoint: mean survival time, dose: 400.0 mg/kg/injection, schedule: Q04DX003 (ip), vehicle: saline with Tween-80) was 0 of 6.
With Cc1cc(NS(=O)(=O)c2ccc(N=Nc3cc(N=Nc4ccc(S(=O)(=O)Nc5cc(C)nc(C)n5)cc4)c4c(NC(=O)C(Cl)Cl)cccc4c3OC(=O)C(Cl)Cl)cc2)nc(C)n1 (tested in a mixture with another compound) the survivor count (T/C endpoint: median survival time, dose: 400.0 mg/kg/injection, schedule: Q01DX009 (ip), vehicle: suspension in saline) was 5 of 6.
With COC(=O)c1cc(-c2ccccc2)nc2c1ccc1ccccc12 the survivor count (T/C endpoint: mean survival time, dose: 200.0 mg/kg/injection, schedule: Q01DX001 (ip), vehicle: saline) was 6 of 6 and the survivor count (T/C endpoint: mean survival time, dose: 400.0 mg/kg/injection, schedule: Q01DX001 (ip), vehicle: saline) was 6 of 6.
In the case of Cc1cc2c(cc1C)[n+]([O-])c1c(=O)[nH]c(=O)[nH]c1[n+]2[O-], the survivor count [1] was 0 of 3.
In the case of CCC(/C=C1\[Se]c2ccc(C)cc2N1CC)=C\c1[se]c2ccc(C)cc2[n+]1CC, the survivor count (T/C endpoint: mean survival time, dose: 75.0 mg/kg/injection, schedule: Q01DX001 (ip), vehicle: other) was 0 of 6, the survivor count (T/C endpoint: mean survival time, dose: 150.0 mg/kg/injection, schedule: Q01DX001 (ip), vehicle: other) was 0 of 6 and the survivor count (T/C endpoint: mean survival time, dose: 300.0 mg/kg/injection, schedule: Q01DX001 (ip), vehicle: other) was 0 of 6.
